Assay results: paper PMC7210110
No constants are given. Whether binding was seen depends on the method and setting. In cells and extracts the contact can be indirect. Some results given as binding are weak or reduced against the parent protein; the word gives no strength. Where a sequence is shown, tags or fusion partners need not be part of it.

T1: AtHAK1 fused to the N-terminal or the C-terminal fragment of Venus, in Nicotiana benthamiana leaf cells (Arabidopsis) (UniProt C0LGD7)
T1 sequence: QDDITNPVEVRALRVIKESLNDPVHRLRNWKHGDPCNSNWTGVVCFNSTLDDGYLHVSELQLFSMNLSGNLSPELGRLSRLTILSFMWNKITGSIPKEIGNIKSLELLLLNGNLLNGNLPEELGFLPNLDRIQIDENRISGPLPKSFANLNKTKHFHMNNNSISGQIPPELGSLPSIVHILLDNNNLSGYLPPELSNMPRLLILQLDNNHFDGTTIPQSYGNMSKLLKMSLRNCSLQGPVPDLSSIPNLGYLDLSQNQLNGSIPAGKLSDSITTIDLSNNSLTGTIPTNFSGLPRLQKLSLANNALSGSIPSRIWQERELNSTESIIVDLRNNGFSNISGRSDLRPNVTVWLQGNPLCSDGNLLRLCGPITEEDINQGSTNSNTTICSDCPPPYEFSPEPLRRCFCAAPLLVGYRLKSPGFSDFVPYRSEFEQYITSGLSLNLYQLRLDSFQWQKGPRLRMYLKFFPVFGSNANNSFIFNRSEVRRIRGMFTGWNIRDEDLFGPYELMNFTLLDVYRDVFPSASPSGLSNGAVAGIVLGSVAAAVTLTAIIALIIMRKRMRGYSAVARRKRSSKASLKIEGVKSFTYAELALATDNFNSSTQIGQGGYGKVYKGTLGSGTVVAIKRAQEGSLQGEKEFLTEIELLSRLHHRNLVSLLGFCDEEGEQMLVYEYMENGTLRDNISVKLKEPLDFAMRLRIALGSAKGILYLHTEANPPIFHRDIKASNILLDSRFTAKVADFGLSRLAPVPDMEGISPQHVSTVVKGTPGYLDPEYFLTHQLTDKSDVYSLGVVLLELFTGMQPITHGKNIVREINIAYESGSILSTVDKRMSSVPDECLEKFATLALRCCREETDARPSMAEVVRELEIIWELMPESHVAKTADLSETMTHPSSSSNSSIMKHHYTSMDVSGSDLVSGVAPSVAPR

T2: AtHAK1, FLAG-tagged copy and 3xHA-tagged copy, in Nicotiana benthamiana leaf extract (Arabidopsis) (UniProt C0LGD7)
T2 sequence: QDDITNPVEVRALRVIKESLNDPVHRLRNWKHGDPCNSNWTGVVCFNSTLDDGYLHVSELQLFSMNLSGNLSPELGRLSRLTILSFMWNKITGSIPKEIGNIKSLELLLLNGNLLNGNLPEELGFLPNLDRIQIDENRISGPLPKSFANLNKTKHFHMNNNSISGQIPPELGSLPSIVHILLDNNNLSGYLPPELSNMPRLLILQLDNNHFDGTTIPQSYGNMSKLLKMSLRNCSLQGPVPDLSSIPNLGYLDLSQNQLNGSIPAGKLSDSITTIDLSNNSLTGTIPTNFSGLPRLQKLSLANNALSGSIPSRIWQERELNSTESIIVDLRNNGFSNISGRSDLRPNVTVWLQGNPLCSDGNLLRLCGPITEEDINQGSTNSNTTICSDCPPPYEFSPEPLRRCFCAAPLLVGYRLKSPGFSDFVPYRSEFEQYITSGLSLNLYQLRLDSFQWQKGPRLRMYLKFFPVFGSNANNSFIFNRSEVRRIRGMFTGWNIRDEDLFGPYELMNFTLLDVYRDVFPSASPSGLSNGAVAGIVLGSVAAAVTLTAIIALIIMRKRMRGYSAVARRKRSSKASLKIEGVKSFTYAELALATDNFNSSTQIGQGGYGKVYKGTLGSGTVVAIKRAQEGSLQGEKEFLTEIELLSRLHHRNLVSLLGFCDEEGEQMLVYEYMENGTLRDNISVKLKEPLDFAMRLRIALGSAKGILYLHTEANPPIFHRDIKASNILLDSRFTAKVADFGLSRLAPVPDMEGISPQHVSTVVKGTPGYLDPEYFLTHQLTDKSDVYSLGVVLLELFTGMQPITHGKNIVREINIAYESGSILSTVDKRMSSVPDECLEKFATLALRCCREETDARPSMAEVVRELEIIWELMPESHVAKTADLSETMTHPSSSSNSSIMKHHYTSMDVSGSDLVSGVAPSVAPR


Key:
[1] = target: T1, AtHAK1 fused to the N-terminal or the C-terminal fragment of Venus, in Nicotiana benthamiana leaf cells (Arabidopsis); test: split reporter; BiFC with nVenus and cVenus fusions co-expressed in N. benthamiana leaf cells by A. tumefaciens-mediated transient expression
[2] = target: T2, AtHAK1, FLAG-tagged copy and 3xHA-tagged copy, in Nicotiana benthamiana leaf extract (Arabidopsis); test: co-IP; FLAG- and 3xHA-tagged proteins expressed in N. benthamiana leaves; total protein extract (50 mM Tris-HCl pH 7.5, 150 mM NaCl, 1% NP-40) precipitated overnight at 4 °C with anti-DYKDDDDK-tag magnetic beads; blots with anti-HA and anti-FLAG

Row | binding [1] | binding [2] | Binder
1 | binds |  | AtHAK1 fused to the N-terminal or the C-terminal fragment of Venus, in Nicotiana benthamiana leaf cells (receptor, UniProt C0LGD7 29-953) QDDITNPVEVRALRVIKESLNDPVHRLRNWKHGDPCNSNWTGVVCFNSTLDDGYLHVSELQLFSMNLSGNLSPELGRLSRLTILSFMWNKITGSIPKEIGNIKSLELLLLNGNLLNGNLPEELGFLPNLDRIQIDENRISGPLPKSFANLNKTKHFHMNNNSISGQIPPELGSLPSIVHILLDNNNLSGYLPPELSNMPRLLILQLDNNHFDGTTIPQSYGNMSKLLKMSLRNCSLQGPVPDLSSIPNLGYLDLSQNQLNGSIPAGKLSDSITTIDLSNNSLTGTIPTNFSGLPRLQKLSLANNALSGSIPSRIWQERELNSTESIIVDLRNNGFSNISGRSDLRPNVTVWLQGNPLCSDGNLLRLCGPITEEDINQGSTNSNTTICSDCPPPYEFSPEPLRRCFCAAPLLVGYRLKSPGFSDFVPYRSEFEQYITSGLSLNLYQLRLDSFQWQKGPRLRMYLKFFPVFGSNANNSFIFNRSEVRRIRGMFTGWNIRDEDLFGPYELMNFTLLDVYRDVFPSASPSGLSNGAVAGIVLGSVAAAVTLTAIIALIIMRKRMRGYSAVARRKRSSKASLKIEGVKSFTYAELALATDNFNSSTQIGQGGYGKVYKGTLGSGTVVAIKRAQEGSLQGEKEFLTEIELLSRLHHRNLVSLLGFCDEEGEQMLVYEYMENGTLRDNISVKLKEPLDFAMRLRIALGSAKGILYLHTEANPPIFHRDIKASNILLDSRFTAKVADFGLSRLAPVPDMEGISPQHVSTVVKGTPGYLDPEYFLTHQLTDKSDVYSLGVVLLELFTGMQPITHGKNIVREINIAYESGSILSTVDKRMSSVPDECLEKFATLALRCCREETDARPSMAEVVRELEIIWELMPESHVAKTADLSETMTHPSSSSNSSIMKHHYTSMDVSGSDLVSGVAPSVAPR
2 |  | binds | AtPBL27, 3xHA-tagged, in Nicotiana benthamiana leaf extract (protein, UniProt Q1PDV6 1-513) MSGCLPCFGSSAKDAASKDSVKKELSAKDGSVTQSHHISLDKSKSRRGPEQKKELTAPKEGPTAHIAAQTFTFRELAAATKNFRPECLLGEGGFGRVYKGRLETTGQIVAVKQLDRNGLQGNREFLVEVLMLSLLHHPNLVNLIGYCADGDQRLLVYEYMPLGSLEDHLHDLPPDKEPLDWSTRMTIAAGAAKGLEYLHDKANPPVIYRDLKSSNILLGDGYHPKLSDFGLAKLGPVGDKTHVSTRVMGTYGYCAPEYAMTGQLTLKSDVYSFGVVFLELITGRKAIDNARAPGEHNLVAWARPLFKDRRKFPKMADPSLQGRYPMRGLYQALAVAAMCLQEQAATRPLIGDVVTALTYLASQTFDPNAPSGQNSRSGSGPPFIRTRDDRRSLGDGSSLDSPAETRSRLGSPATHKNSPDYRRRDMVREVNAGSEGGSETGGGSGRKWGLSDLEGQESQRGSPASVGRSSRGTPRNRDLDRERAVAEAKVWGENWRERKRATNGPGSFDSTND
3 | binds |  | AtPBL27 fused to the C-terminal fragment of Venus, in Nicotiana benthamiana leaf cells (protein, UniProt Q1PDV6 1-513) MSGCLPCFGSSAKDAASKDSVKKELSAKDGSVTQSHHISLDKSKSRRGPEQKKELTAPKEGPTAHIAAQTFTFRELAAATKNFRPECLLGEGGFGRVYKGRLETTGQIVAVKQLDRNGLQGNREFLVEVLMLSLLHHPNLVNLIGYCADGDQRLLVYEYMPLGSLEDHLHDLPPDKEPLDWSTRMTIAAGAAKGLEYLHDKANPPVIYRDLKSSNILLGDGYHPKLSDFGLAKLGPVGDKTHVSTRVMGTYGYCAPEYAMTGQLTLKSDVYSFGVVFLELITGRKAIDNARAPGEHNLVAWARPLFKDRRKFPKMADPSLQGRYPMRGLYQALAVAAMCLQEQAATRPLIGDVVTALTYLASQTFDPNAPSGQNSRSGSGPPFIRTRDDRRSLGDGSSLDSPAETRSRLGSPATHKNSPDYRRRDMVREVNAGSEGGSETGGGSGRKWGLSDLEGQESQRGSPASVGRSSRGTPRNRDLDRERAVAEAKVWGENWRERKRATNGPGSFDSTND
